This is one part of the list.
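Note: competitive chemoproteomic profiling in live THP-1 cells with an iodoacetamide desthiobiotin (IA-DTB) probe, comparing probe-labelled peptide intensities in compound-treated cells against DMSO-treated controls.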

Sequences of proteins named here, by UniProt entry; tags and fusion partners are left off. A change or cut given only in a name is not applied to a line headed by its entry.
UniProt Q9NYU2: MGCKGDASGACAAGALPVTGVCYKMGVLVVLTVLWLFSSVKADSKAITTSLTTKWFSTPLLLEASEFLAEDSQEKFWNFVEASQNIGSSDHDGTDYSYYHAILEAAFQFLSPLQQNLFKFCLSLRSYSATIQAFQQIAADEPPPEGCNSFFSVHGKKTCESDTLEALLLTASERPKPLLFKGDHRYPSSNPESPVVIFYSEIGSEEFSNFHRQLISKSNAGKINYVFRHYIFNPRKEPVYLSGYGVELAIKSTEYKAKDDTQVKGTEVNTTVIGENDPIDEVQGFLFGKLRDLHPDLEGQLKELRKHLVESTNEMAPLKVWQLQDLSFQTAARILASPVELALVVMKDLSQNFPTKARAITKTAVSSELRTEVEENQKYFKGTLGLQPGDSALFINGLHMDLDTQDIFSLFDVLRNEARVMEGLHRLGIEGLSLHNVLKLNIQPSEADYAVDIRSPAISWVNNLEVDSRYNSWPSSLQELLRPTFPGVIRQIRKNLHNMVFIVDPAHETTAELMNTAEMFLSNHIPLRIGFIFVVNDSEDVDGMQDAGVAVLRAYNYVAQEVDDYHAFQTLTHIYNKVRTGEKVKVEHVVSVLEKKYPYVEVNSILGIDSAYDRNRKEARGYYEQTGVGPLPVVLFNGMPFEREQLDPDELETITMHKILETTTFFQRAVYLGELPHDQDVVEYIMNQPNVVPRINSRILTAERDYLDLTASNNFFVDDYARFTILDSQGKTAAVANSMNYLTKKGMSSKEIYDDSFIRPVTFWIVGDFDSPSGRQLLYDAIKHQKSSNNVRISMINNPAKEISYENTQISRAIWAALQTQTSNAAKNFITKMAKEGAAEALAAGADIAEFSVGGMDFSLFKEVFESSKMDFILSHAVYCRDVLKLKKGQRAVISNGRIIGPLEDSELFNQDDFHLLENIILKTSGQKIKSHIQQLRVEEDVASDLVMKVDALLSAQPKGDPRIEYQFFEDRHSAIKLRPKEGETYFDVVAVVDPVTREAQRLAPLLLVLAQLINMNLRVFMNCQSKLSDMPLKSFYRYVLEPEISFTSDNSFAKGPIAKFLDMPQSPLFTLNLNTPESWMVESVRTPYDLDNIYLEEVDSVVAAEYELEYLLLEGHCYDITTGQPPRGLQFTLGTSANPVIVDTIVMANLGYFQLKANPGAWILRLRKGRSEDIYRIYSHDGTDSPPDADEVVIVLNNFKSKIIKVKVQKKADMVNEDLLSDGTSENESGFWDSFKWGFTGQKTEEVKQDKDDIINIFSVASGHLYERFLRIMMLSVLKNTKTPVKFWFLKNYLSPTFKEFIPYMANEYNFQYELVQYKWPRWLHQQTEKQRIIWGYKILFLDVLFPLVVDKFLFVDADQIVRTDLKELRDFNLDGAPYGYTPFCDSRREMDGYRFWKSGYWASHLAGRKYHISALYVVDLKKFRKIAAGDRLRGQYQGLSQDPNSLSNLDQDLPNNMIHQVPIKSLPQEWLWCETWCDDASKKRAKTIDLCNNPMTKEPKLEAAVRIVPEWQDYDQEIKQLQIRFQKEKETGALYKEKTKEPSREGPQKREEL
UniProt O60287: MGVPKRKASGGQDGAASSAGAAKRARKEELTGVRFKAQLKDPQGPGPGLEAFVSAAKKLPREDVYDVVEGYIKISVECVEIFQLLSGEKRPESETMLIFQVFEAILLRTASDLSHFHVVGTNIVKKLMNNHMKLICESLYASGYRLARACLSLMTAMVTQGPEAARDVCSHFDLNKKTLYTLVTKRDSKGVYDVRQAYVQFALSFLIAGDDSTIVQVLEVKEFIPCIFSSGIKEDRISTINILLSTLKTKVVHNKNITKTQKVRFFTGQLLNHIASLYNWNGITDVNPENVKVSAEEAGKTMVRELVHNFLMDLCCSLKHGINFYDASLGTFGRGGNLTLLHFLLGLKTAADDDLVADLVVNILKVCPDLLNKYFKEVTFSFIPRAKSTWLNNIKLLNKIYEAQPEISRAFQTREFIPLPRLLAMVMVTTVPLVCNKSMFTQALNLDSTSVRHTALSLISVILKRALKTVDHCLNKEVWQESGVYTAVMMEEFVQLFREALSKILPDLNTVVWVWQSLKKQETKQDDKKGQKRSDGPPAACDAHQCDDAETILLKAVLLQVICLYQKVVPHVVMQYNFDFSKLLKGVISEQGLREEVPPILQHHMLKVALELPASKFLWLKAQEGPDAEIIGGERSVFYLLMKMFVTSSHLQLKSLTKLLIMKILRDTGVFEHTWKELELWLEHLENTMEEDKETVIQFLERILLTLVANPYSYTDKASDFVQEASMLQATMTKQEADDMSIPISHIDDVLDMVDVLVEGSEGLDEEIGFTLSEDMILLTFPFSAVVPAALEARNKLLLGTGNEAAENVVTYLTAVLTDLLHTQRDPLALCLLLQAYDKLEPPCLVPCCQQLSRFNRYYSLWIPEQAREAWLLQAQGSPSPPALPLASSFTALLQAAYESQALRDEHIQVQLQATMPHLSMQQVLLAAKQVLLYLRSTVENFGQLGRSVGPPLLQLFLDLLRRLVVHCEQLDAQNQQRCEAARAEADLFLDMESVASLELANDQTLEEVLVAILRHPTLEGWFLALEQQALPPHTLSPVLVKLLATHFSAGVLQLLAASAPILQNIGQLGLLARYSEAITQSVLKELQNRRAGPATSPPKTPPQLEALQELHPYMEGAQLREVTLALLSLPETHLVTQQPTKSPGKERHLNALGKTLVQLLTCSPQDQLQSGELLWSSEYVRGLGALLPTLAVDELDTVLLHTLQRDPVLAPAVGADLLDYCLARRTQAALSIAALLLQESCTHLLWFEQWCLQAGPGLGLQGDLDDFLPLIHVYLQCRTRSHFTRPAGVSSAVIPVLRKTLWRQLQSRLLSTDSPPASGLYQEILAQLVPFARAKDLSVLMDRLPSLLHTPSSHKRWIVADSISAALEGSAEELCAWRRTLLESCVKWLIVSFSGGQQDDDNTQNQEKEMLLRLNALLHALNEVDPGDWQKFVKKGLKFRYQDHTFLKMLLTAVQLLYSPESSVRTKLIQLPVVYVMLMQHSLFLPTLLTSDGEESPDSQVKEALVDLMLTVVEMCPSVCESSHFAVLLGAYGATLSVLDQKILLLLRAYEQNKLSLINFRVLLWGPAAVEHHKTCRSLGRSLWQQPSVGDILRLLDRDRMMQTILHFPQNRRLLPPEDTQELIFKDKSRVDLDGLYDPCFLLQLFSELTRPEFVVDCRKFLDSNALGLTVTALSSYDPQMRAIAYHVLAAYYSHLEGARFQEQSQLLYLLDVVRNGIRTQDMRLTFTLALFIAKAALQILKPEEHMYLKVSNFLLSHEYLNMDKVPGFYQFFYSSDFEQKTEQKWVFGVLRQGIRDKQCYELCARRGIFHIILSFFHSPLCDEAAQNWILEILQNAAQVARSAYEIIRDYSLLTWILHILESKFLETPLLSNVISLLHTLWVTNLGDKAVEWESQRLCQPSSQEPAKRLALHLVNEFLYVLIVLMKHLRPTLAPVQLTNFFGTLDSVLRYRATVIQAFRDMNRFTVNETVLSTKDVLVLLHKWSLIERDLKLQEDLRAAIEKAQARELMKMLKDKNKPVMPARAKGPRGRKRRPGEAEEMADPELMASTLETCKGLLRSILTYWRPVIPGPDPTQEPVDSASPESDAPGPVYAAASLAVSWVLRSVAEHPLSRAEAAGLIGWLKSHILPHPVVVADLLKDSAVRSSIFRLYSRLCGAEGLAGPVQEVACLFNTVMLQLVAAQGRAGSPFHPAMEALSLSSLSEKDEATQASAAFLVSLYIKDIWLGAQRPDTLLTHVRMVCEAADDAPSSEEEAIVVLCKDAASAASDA
UniProt Q53GS9: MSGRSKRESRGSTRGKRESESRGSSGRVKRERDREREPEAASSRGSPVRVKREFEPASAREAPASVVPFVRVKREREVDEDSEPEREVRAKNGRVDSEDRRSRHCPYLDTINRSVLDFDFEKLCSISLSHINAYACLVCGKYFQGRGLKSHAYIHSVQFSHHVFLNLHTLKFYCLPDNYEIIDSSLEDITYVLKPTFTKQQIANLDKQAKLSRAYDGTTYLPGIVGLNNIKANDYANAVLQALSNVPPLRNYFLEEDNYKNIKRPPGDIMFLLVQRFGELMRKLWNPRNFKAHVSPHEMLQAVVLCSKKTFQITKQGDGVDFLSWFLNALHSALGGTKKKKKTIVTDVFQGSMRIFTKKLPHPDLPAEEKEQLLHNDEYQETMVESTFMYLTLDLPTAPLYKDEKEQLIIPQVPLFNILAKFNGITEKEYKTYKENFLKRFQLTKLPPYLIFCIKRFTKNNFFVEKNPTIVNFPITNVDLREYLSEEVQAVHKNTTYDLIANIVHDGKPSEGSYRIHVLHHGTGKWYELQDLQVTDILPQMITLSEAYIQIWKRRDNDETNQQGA
UniProt Q9H3U1: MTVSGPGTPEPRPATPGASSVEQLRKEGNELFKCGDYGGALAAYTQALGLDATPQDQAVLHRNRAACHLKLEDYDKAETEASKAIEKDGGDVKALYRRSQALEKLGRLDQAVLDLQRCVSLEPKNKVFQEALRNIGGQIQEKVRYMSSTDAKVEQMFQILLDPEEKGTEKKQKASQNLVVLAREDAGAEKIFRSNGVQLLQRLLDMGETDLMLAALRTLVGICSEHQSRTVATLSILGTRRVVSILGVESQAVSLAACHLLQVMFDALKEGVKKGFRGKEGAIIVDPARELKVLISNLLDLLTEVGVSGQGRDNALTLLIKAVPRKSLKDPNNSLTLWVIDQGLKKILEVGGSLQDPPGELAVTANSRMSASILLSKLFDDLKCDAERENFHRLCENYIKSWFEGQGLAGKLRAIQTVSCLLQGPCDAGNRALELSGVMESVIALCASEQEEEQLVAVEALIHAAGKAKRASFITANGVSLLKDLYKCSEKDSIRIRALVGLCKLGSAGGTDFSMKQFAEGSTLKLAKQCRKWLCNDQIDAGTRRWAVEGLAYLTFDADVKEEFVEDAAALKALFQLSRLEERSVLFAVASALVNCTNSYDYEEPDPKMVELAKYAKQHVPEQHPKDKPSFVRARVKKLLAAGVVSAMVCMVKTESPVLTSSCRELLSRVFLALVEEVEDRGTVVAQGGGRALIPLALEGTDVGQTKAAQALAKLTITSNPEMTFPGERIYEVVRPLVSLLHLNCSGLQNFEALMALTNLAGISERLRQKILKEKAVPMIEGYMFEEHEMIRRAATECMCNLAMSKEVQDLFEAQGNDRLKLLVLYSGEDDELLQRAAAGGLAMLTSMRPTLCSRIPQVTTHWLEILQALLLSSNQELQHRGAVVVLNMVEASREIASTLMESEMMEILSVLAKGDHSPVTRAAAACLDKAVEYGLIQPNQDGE
UniProt P11172: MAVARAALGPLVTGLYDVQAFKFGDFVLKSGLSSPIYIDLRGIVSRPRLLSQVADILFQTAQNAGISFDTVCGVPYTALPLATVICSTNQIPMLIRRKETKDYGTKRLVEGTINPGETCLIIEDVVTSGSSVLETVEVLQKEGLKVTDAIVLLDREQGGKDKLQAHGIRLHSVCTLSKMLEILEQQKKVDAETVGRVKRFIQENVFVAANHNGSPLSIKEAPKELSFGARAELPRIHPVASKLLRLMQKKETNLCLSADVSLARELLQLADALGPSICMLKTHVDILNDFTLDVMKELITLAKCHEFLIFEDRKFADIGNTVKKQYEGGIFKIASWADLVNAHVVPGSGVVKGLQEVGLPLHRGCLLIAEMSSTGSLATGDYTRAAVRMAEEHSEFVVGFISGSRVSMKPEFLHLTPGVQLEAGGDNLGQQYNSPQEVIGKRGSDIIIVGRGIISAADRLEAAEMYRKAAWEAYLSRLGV
UniProt P54578: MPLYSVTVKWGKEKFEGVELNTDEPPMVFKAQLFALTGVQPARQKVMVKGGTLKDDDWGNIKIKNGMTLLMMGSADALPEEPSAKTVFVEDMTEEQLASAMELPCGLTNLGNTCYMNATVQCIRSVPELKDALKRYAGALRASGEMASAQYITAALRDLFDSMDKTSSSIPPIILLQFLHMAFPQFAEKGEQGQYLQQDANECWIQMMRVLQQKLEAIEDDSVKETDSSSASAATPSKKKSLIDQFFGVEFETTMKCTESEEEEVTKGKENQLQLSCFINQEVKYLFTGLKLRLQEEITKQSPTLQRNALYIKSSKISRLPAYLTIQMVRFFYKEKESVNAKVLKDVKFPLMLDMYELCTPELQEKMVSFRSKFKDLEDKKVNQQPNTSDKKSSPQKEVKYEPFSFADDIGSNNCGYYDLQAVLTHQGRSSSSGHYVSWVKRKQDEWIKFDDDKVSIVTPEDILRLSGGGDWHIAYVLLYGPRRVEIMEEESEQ
UniProt Q9Y3C8: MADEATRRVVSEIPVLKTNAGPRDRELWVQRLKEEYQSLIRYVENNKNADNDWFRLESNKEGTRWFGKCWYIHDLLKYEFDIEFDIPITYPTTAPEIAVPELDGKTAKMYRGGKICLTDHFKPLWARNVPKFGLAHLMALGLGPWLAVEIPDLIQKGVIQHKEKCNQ

Compound in the first assay: CC1Cc2ccccc2N1C(=O)C1CCCN(C1)C(=O)CCl (mixture of isomers) [TRIM25 ligand 11 (diastereomer mixture)]
The assay can be described thus: probe-labelled cysteine peptide fold change vs DMSO (competition) (log2 fold change); higher = less target engagement (more negative = stronger competition). As to conditions: 10 µM; THP-1; incubation time: 4 h.
For “UGGT1_Q9NYU2_159_KTCESDTLEALLLTASERPKPLLFK (UniProt Q9NYU2)”, the “probe-labelled cysteine peptide fold change” value was -0.447. With “UPF1_Q92900_852_DFIILSCVR (UniProt Q92900)”, the “probe-labelled cysteine peptide fold change” value is 0.0988. As for “URB1_O60287_315_ELVHNFLMDLCCSLK (UniProt O60287)”, the “probe-labelled cysteine peptide fold change” value was -0.0229. On to “USP40_Q9NVE5_832_MGSSLGLCLGK (UniProt Q9NVE5)”, for which the “probe-labelled cysteine peptide fold change” value was -0.0517. As for “USP39_Q53GS9_306_AHVSPHEMLQAVVLCSK (UniProt Q53GS9)”, the “probe-labelled cysteine peptide fold change” value was 0.15. Same read-out and setting: the value for “UNC45A_Q9H3U1_118_CVSLEPK (UniProt Q9H3U1)” was 0.0445; that for “USP7_Q93009_721_IRDLLPVMCDR (UniProt Q93009)” was -0.00648; that for “UQCRC1_P31930_410_NALVSHLDGTTPVCEDIGR (UniProt P31930)” was 0.00661. Still for that read-out and setting: the value for “UHRF1_Q96T88_410_ECTIVPSNHYGPIPGIPVGTMWR (UniProt Q96T88)” was 0.0855; that for “USP24_Q9UPU5_1377_LSSSGSNCSSGSEGEPVALHAGICVR (UniProt Q9UPU5)” was -0.0255. For the target “USP19_O94966_1084_AGHFTLDQCLNLFTRPEVLAPEEAWYCPQCK (UniProt O94966)”, the “probe-labelled cysteine peptide fold change” value is -0.0638.

Turning to “UCHL5_Q9Y5K5_9_TGNAGEWCLMESDPGVFTELIK (UniProt Q9Y5K5)”, the “probe-labelled cysteine peptide fold change” value is -0.21. Regarding “UBR7_Q8N806_260_VEQNSEPCAGSSSESDLQTVFK (UniProt Q8N806)”, the “probe-labelled cysteine peptide fold change” value was -0.0933.

Turning to “UGDH_O60701_288_DVLNLVYLCEALNLPEVAR (UniProt O60701)”, the “probe-labelled cysteine peptide fold change” value was -0.244. Turning to “UIMC1_Q96RL1_121_AIAESLNSCRPSDASATR (UniProt Q96RL1)”, the “probe-labelled cysteine peptide fold change” value was found to be 0.14. Still for that read-out and setting: the value for “UNC13D_Q70J99_699_DQGQAANMLCVVVNDMEQLR (UniProt Q70J99)” was -0.486. Same read-out and setting: to “UNC13B_O14795_1352_QCAVLDLALDTIK (UniProt O14795)” belongs 0.0673; to “UHRF1_Q96T88_170_KAPSRDEPCSSTSR (UniProt Q96T88)”, 0.0682; to “UFD1_Q92890_25_CFSVSMLAGPNDRSDVEK (UniProt Q92890)”, -0.255.

Take “UNC45A_Q9H3U1_503_ALVGLCK (UniProt Q9H3U1)”: the “probe-labelled cysteine peptide fold change” value was found to be 0.0324.

The assay is the same for the next values; noted with them: 50 µM; THP-1; incubation time: 4 h.
For “USP7_Q93009_799_DLYHRVDVIFCDK (UniProt Q93009)”, the “probe-labelled cysteine peptide fold change” value was -0.115. Consider “UQCRC2_P22695_192_NALANPLYCPDYR (UniProt P22695)”, for which the “probe-labelled cysteine peptide fold change” value came out at 0.0363. With “UMPS_P11172_304_CHEFLIFEDR (UniProt P11172)”, the “probe-labelled cysteine peptide fold change” value was 0.0155. On to “UMPS_P11172_304_CHEFLIFEDRK (UniProt P11172)”, for which the “probe-labelled cysteine peptide fold change” value is -0.0218. Turning to “USP14_P54578_203_GEQGQYLQQDANECWIQMMR (UniProt P54578)”, the “probe-labelled cysteine peptide fold change” value came to 0.0657. Turning to “USP47_Q96K76_656_MMDLEEVIPLDCCR (UniProt Q96K76)”, the “probe-labelled cysteine peptide fold change” value was -0.239.

Regarding “UNC119_Q13432_190_NTCEHIYDFPPLSEELISEMIR (UniProt Q13432)”, the “probe-labelled cysteine peptide fold change” value was -0.155. With “USP14_P54578_415_YEPFSFADDIGSNNCGYYDLQAVLTHQGR (UniProt P54578)”, the “probe-labelled cysteine peptide fold change” value is -0.0789.

Regarding “USP6_P35125_1036_AQAEPINLDSCLR (UniProt P35125)”, the “probe-labelled cysteine peptide fold change” value is -0.0406.

Regarding “UMPS_P11172_174_LHSVCTLSK (UniProt P11172)”, the “probe-labelled cysteine peptide fold change” value came out at 0.0932.

As for “URB1_O60287_563_AVLLQVICLYQK (UniProt O60287)”, the “probe-labelled cysteine peptide fold change” value is -0.455. With “UGGT1_Q9NYU2_159_TCESDTLEALLLTASERPK (UniProt Q9NYU2)”, the “probe-labelled cysteine peptide fold change” value came to 0.107. For the target “USP38_Q8NB14_38_VVESAEHWLDEAQCEAMFDLTTR (UniProt Q8NB14)”, the “probe-labelled cysteine peptide fold change” value was found to be 0.224. Consider “UPF1_Q92900_683_QLILVGDHCQLGPVVMCK (UniProt Q92900)”, for which the “probe-labelled cysteine peptide fold change” value is 0.054.

For the target “UFC1_Q9Y3C8_116_ICLTDHFK (UniProt Q9Y3C8)”, the “probe-labelled cysteine peptide fold change” value was -0.0548. As for “USP7_Q93009_702_SLNYCGHIYTPISCK (UniProt Q93009)”, the “probe-labelled cysteine peptide fold change” value is -0.139. As to “UGGT1_Q9NYU2_159_KTCESDTLEALLLTASERPKPLLFK (UniProt Q9NYU2)”, the “probe-labelled cysteine peptide fold change” value was -0.333.

Take “UPF1_Q92900_852_DFIILSCVR (UniProt Q92900)”: the “probe-labelled cysteine peptide fold change” value was found to be 0.132. Still for that read-out and setting: the value for “URB1_O60287_315_ELVHNFLMDLCCSLK (UniProt O60287)” was -0.0236.

As for “USP40_Q9NVE5_832_MGSSLGLCLGK (UniProt Q9NVE5)”, the “probe-labelled cysteine peptide fold change” value was -0.0256.

For the target “USP39_Q53GS9_306_AHVSPHEMLQAVVLCSK (UniProt Q53GS9)”, the “probe-labelled cysteine peptide fold change” value turned out to be 0.066. As for “UNC45A_Q9H3U1_118_CVSLEPK (UniProt Q9H3U1)”, the “probe-labelled cysteine peptide fold change” value is 0.135. On the same count and under the same terms, to “USP7_Q93009_721_IRDLLPVMCDR (UniProt Q93009)” belongs -0.106. As for “UQCRC1_P31930_410_NALVSHLDGTTPVCEDIGR (UniProt P31930)”, the “probe-labelled cysteine peptide fold change” value was -0.104.

These data come from the supplement of paper PMC12067093, “Discovery and optimisation of a covalent ligand for TRIM25 and its application to targeted protein ubiquitination” (Chemical Science, 2025).
